# In PubChem BioAssay AID1347426 (Functional Genomics Laboratory (NCATS/FGL), 2020):
# Screen size: about 31,000 sequences; about 1,400 (4.5%) were called active.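 Rule for the calls: active = median seed-adjusted z-score above 1 or below -1; inactive = the rest.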 The list shows a part of the results.
# Experiment: Novel Modifiers of Survival Motor Neuron (SMN) Protein: Gene Identification via Genome-wide siRNA Screen;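 note: luminescence tracks full-length SMN protein made from the SMN2 reporter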
# Conditions: HEK293T SMN2-luciferase reporter, siRNA knockdown, 72 h; actives lie on both sides
# How it was run: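 Each of three siRNAs per gene is reverse-transfected (1 pmol) into reporter HEK293T cells whose luciferase output tracks SMN protein level. After 72 h culture, ONE-Glo luminescence is control-normalized, log10-transformed and MAD-standardized; Common Seed Analysis deprioritizes seed-driven hits.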
row,Sequence,median seed-adjusted z-score
1,GGAUGCUAACAGGCGAUAATT against ATP9B,inactive: 0
2,CUACUUGAAACUUUAUUUATT against CHAC1,inactive: 0.517
3,CAUAGAAGCGGAUACUUAUTT against GALM,inactive: -0.111
4,AGAUACUGCUCAGCCUUGATT against GUCY2E,inactive: 0.61
5,CAGCUUGUUUUGAGACUCATT against GFI1B,inactive: 0.154
6,GGUCAAUGGUGGAAGUUGUTT against PORCN,inactive: 0.214
7,ACAGCUGCGUGGAUCCCUUTT against F2RL3,inactive: 0.133
8,GGGCGAUUCCUGUCUAAGATT against PUM1,inactive: 0.109
9,GAAUAUGAGUACCUAGAUUTT against SELPLG,inactive: 0.0378
10,CAAGCGACAUUGAAGAGUUTT against TYRO3,inactive: -0.0161
11,GCCUUAUGUAUGCACAGAATT against HKR1,inactive: -0.358
12,CUAUGUCAGUAAAUGAUAUTT against DNAJB4,inactive: -0.12
13,GGGACACCUCCAUUACUCATT against DAPK1,inactive: 0.27
14,GGAACGUGCGAAGUCUAAATT against ACIN1,inactive: -0.674
15,CUGAGACACUCAACAAGUATT against IL8RA,inactive: 0.316
16,UCAUCAUGCUUAUCGUGGATT against SLC6A20,inactive: -0.306
17,GCACGGACCAUGAACUUCATT against GRIN1,inactive: -0.137
18,GCUGCUACAGAUUUAUCAATT against CCL7,inactive: 0.23
19,CCAUUGGAUUCACUAUGUATT against GRM7,inactive: 0.389
20,GUCCUAUACUUUGCACAAUTT against PHF11,inactive: 0.174
21,CCUAGAAACGAGUUCCAAATT against LIPJ,inactive: 0.295
22,CCACUGCUAAGAAAACCAATT against SLC2A10,inactive: -0.0407
23,AGCCCGUGAUGUACACGUATT against COL8A1,inactive: -0.848
24,GGUUCUAACUACCUCCAGATT against KRT5,inactive: -0.325
25,GGAGUGUGAUGAUUCGUGATT against DGKK,inactive: 0
26,GCAUUGAUGAUUUCCGAGATT against PPP1R16A,inactive: 0.322
27,GUGUAAAACUUGUCAGCGATT against WT1,inactive: 0.236

row,Sequence,median seed-adjusted z-score
1,CGAGACUACUAAAGAAACATT against DDX18,inactive: 0.241
2,CCUUCAAUCAAAAGCCUUATT against DUXA,inactive: 0
3,GAAGGUCCUGAACAGUUUATT against ZFAT,inactive: -0.183
4,GCGAUGAUGUGGAACCUUATT against TBC1D9,inactive: -0.0473
5,GGACGGCUUUCUGCAAAGATT against GLRA2,inactive: -0.927
6,GGAUGAUAUUCUAUCCUUUTT against IPO13,inactive: 0.612
7,GGAAAGAAGGCAUAUAAAUTT against ZNF260,inactive: -0.682
8,GAGGUACGCUGGUUCUACATT against DDHD1,inactive: 0
9,CUUCAUGCAUUUUACGAAATT against POLA1,inactive: -0.317
10,GAGCGGUACCGGAAGUUUATT against JMJD1B,inactive: 0.402
11,GACUAGGAAUAAUAGUAUUTT against RNF166,inactive: -0.3
12,GGACACGGGUGUCAUCCUATT against UBASH3A,active: -1.1
13,CGAUGUGAAUUACUUAGUUTT against EDNRA,inactive: 0.133
14,CCACCUUCGAUGUUCCCAUTT against HMG20B,inactive: 0.231
15,CCUGAGCAUUUGGACAAUATT against SALL1,inactive: -0.526
16,CUAGACCUUUCAUUAGAUATT against USP3,inactive: -0.176
17,GGUCAGAAGUGGCAAUGAATT against FFAR2,inactive: 0.146
18,GCAGAUGACUACAACUUUATT against E2F5,inactive: -0.628
19,GGCAGUUUUUGAGCCGGAATT against CENTA1,inactive: -0.555
20,GAUAGACAUUAGUCCGGUUTT against MRE11A,inactive: 0.0507
21,GAAGUGUACUGCAAUCCAATT against OFD1,inactive: 0
22,CAAAGCGGAUGGUUACCAATT against YME1L1,inactive: 0.131
23,GCUCCUAGGUCAGACCAGATT against NPPA,inactive: -0.897
24,CAGUGUUCGUCAAAGUCAATT against FN3K,inactive: -0.508
25,GAUCCUGGCUAAGAGGGAATT against PPP1R14D,inactive: 0
26,GCCUGUCCCACUUUGAGUATT against TNK2,inactive: -0.574
27,GGAAGAAGCUCUUCGGAAATT against PAPD5,inactive: 0.325

# Some of the entries so far, tab-delimited:
row	Sequence	median seed-adjusted z-score
1	GGAUGCUAACAGGCGAUAATT against ATP9B	inactive: 0
11	GACUAGGAAUAAUAGUAUUTT against RNF166	inactive: -0.3
